PubChem BioAssay AID1259254 | NCATS, 2017

Test: 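Gene knock-downs that lead to re-replication, shown by excess G2 DNA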 (primary screen)
Cell system: human HCT116 colorectal cancer cells
Reagents: single siRNA against human genes
Duration: 3 days
Measurement: 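Imaged Hoechst DNA stain sorts each cell into a cycle phase by DNA amount; per plate, G2 fraction set to 0% for non-targeting and 100% for GMNN siRNA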
Direction: G2 robust z-score: higher = more G2 cells, more excess DNA replication
Hit rule: 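An siRNA counts as active if its G2 robust z-score lies at least 5 MADs above the screen median; here such calls match roughly 38% of GMNN control or more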
This is a random part of about 59,000 deposited reagents. About 1,550 of all reagents (2.6%) were called active. 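G2 share is only a proxy for re-replication; each gene was hit by three separate siRNAs, and active genes were retested.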 A number with no mark means an inactive call. Reagents against one gene are numbered here. Not all columns of the deposit are shown. The record does not give: the amount of reagent.

COMMD4P1 (COMM domain containing 4 pseudogene 1) #1 | G2 robust z-score = -0.495
COMMD4P1 (COMM domain containing 4 pseudogene 1) #2 | G2 robust z-score = 0.858
COMMD4P1 (COMM domain containing 4 pseudogene 1) #3 | G2 robust z-score = 2.26
NOX5 (NADPH oxidase 5) #1 | G2 robust z-score = 0.405
NOX5 (NADPH oxidase 5) #2 | G2 robust z-score = -0.606
NOX5 (NADPH oxidase 5) #3 | G2 robust z-score = -1.22
EGR2 (early growth response 2) #1 | G2 robust z-score = -0.626
EGR2 (early growth response 2) #2 | G2 robust z-score = -0.0319
EGR2 (early growth response 2) #3 | G2 robust z-score = -0.981
SENP8 (SUMO peptidase family member, NEDD8 specific) #1 | G2 robust z-score = 1.98
SENP8 (SUMO peptidase family member, NEDD8 specific) #2 | G2 robust z-score = -1.27
SENP8 (SUMO peptidase family member, NEDD8 specific) #3 | G2 robust z-score = -0.357
CRISPLD1 (cysteine rich secretory protein LCCL domain containing 1) #1 | G2 robust z-score = 3.1
CRISPLD1 (cysteine rich secretory protein LCCL domain containing 1) #2 | G2 robust z-score = 0.265
CRISPLD1 (cysteine rich secretory protein LCCL domain containing 1) #3 | G2 robust z-score = 0.0132
IL3 (interleukin 3) #1 | G2 robust z-score = -0.651
IL3 (interleukin 3) #2 | G2 robust z-score = -0.709
IL3 (interleukin 3) #3 | G2 robust z-score = -0.0527
HERC1 #1 | G2 robust z-score = -0.269
HERC1 #2 | G2 robust z-score = 0.349
HERC1 #3 | G2 robust z-score = -0.73
SIPA1 (signal-induced proliferation-associated 1) #1 | G2 robust z-score = 0.217
SIPA1 (signal-induced proliferation-associated 1) #2 | G2 robust z-score = 1.29
SIPA1 (signal-induced proliferation-associated 1) #3 | G2 robust z-score = 3.82
CT83 (cancer/testis antigen 83) #1 | G2 robust z-score = 0.0632
CT83 (cancer/testis antigen 83) #2 | G2 robust z-score = -0.0813
CT83 (cancer/testis antigen 83) #3 | G2 robust z-score = -0.446
KRTAP13-1 (keratin associated protein 13-1) #1 | G2 robust z-score = 1.71
KRTAP13-1 (keratin associated protein 13-1) #2 | G2 robust z-score = 2.31
KRTAP13-1 (keratin associated protein 13-1) #3 | G2 robust z-score = -0.379

Sorted by “G2 robust z-score” (lowest first): some entries from above.
NOX5 (NADPH oxidase 5) #1 | G2 robust z-score = 0.405
COMMD4P1 (COMM domain containing 4 pseudogene 1) #3 | G2 robust z-score = 2.26
